# Experimental data reported in patent publication US20080241258A1, “TREATMENT OF DISEASES WITH NANOPARTICLES HAVING A SIZE-DEPENDENT CYTOTOXICITY” (priority 2007, published 2008).
# Entries after “also recorded” stand apart in the source; their conditions may differ.
# Test system: HeLa cells
# Assay: Annexin V/propidium iodide double staining and flow cytometry (live, apoptotic, necrotic cells)
# Format: cell-based
# Conditions: HeLa log phase, 6, 12, 18 and 24 hours; staurosporine 2 μM, Au1.2TPPMS 140 μM, Au1.4TPPMS 110 μM
smiles,measurement,value
CN[C@@H]1C[C@H]2O[C@@](C)([C@@H]1OC)n1c3ccccc3c3c4c(c5c6ccccc6n2c5c31)C(=O)NC4 [staurosporine],kind of cell death (apoptosis versus necrosis),predominantly apoptosis; also recorded: mostly apopotosis
